Data as given in PubChem BioAssay AID1671195 (Yale University, 2021).
The whole screen tested about 22,000 reagents; shown is an unselected part. Of all reagents, about 1,510 (6.9%) are marked active. 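Active includes knockdowns raising or lowering LDL uptake; positive z-scores mean more uptake, negative mean less.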 Unmarked entries are inactive. Reagent sequences are not shown.

Screen: 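Regulators of LDL receptor activity judged by labelled LDL uptake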 (primary screen)
Cells: human Huh7 hepatoma cells
Reagents: siRNA pool against human genes, 18 nM
Timing: about 2 to 2.5 days of knockdown, then 8 h LDL uptake
Treatment: DiI-labelled LDL at 30 µg/ml for 8 h, in lipoprotein-deficient serum medium
Measurement: 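Fluorescent LDL signal imaged in cells, scaled to the plate median, robust z-score for each replicate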
Reading the numbers: robust z-score: higher = more LDL uptake after knockdown
Rule for the call: 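a gene counts as active if at least two replicate z-scores exceed ±2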

| Gene | robust z-score, replicate 1 | robust z-score, replicate 2 | robust z-score, replicate 3 |
| --- | --- | --- | --- |
| NAA16 | -1.49 | -1.42 | -0.832 |
| TAMALIN | -0.081 | 0.425 | -0.158 |
| MMP16 | -1.12 | -0.584 | -0.621 |
| VPS51P8 | -1.13 | -1.31 | -1.14 |
| CAP2 | -0.436 | 0.221 | -0.733 |
| LOC442399 (retired record) | -0.32 | 0.138 | 0.107 |
| PRRX1 | -1 | -1.26 | -1.76 |
| SCNN1G | -1.44 | -1.91 | -1.82 |
| FUNDC2P1 | -0.573 | -0.88 | -0.724 |
| LOC388568 (retired record) | -1.56 | -0.834 | -1.58 |

Continued (3 carried over from the part before).
| Gene | robust z-score, replicate 1 | robust z-score, replicate 2 | robust z-score, replicate 3 |
| --- | --- | --- | --- |
| SCNN1G | -1.44 | -1.91 | -1.82 |
| FUNDC2P1 | -0.573 | -0.88 | -0.724 |
| LOC388568 (retired record) | -1.56 | -0.834 | -1.58 |
| LINC00900 | -0.816 | -0.182 | -0.232 |
| ZAR1 | -0.584 | -0.681 | -0.647 |
| LIPF | -0.755 | -0.343 | -0.342 |
| HTR3B | -1.18 | -0.788 | -1.37 |
| BUB3 | -0.481 | -0.528 | -0.789 |
| GOLGA2P10 | -2.03 (active) | -2.17 | -1.88 |
| ABHD17B | 0.257 (active) | 2.28 | 2.2 |
| TRIM14 | 1.38 | 0.81 | 0.634 |
| OR10X1 | -1.05 | -1.26 | -0.433 |
| PHF2 | -0.0382 | -0.0907 | -1.08 |
| RALGAPA1 | 1.12 | 1.3 | 1.48 |
| HMGN5 | 3.45 (active) | 3.14 | 2.06 |
| LINC02910 | 4.83 (active) | 5.14 | 4.41 |
| RHOJ | 0.669 | 0.206 | 1.47 |
| HSPA2 | -0.894 | -0.993 | -0.681 |
| M6PR | 4.19 (active) | 5.51 | 2.47 |
| ITGA2B | 0.336 | -0.603 | 0.428 |
| SHROOM1 | 0.497 | 0.368 | 0.905 |
